Experimental data as given in PubChem BioAssay AID540276 (National Center for Advancing Translational Sciences (NCATS), 2011).
The whole screen tested about 300,000 compounds, of which about 5,400 (1.8%) were called active. The inconclusive results got no clear call from the source; some entries with a clear call stand among them for comparison. Calls come from the whole dose curve; tested in HEK293 cells. A potency beside an inconclusive call is a rough fit, not a confirmed value.

Assay: qHTS for inhibitors of binding or entry into cells for Marburg Virus
Settings: Marburg virus pseudotyped entry inhibition, cell reporter; series mostly up to 37.8 µM
Potency is the fitted concentration of half-maximal effect.

SMILES | Potency
CC(=O)c1ccc(NC(=O)c2cc(C)nn2-c2ccccc2)cc1 | inconclusive: 5.62 µM [inhibitor, single point]
COc1cccc(C(=O)CC(=O)C(=O)Nc2cccc([N+](=O)[O-])c2C)c1 | inconclusive: 35.5 µM [inhibitor, single point]
COc1ccccc1/C=C/C(=O)c1c2c(c(C)[nH]c1=O)CCCC2 | active: 20.6 µM
O=C(Cn1nc(-c2ccccc2)c2ccccc2c1=O)Nc1ccccn1 | inconclusive: 35.5 µM [inhibitor, single point]
Fc1cccc(Cc2noc(CN3CCCCC3c3ccccn3)n2)c1 (centres undefined) | inactive
CCOC(=O)c1c(NC(=O)Cc2coc3cc(C)cc(C)c23)sc2c1CCC2 | inactive
COc1ccccc1NC(=O)C1=C(C)Nc2nc(-c3cccs3)nn2C1c1cccc(O)c1 (centres undefined) | inconclusive: 35.5 µM [inhibitor, partial curve, poor fit]
Cc1nn(Cc2n[nH]c(=S)n2Cc2ccccc2)c(C)c1Cl | inconclusive: 15.8 µM [inhibitor, single point]
CCOC(=O)CN=C/C(C(=O)Nc1nccs1)=C(/C)O | inactive
COc1ccc(C(=O)NN(C)c2nc(C(F)(F)F)nc3ccccc23)cc1 | inconclusive: 2.51 µM [inhibitor, full curve, poor fit]
O=C(C1CC(=O)N(c2ccc(Br)cc2)C1)N1CCCC1 (centres undefined) | inactive
Cc1ccc2c(c1)N(C(=O)CSc1nncn1C)C(C)(C)c1ssc(=S)c1-2 | inconclusive: 35.5 µM [inhibitor, single point]
CCOC(=O)c1ccc(NC(=O)COc2ccc(CNCCO)cc2OCC)cc1 | active: 10 µM
CC(=O)NCCNC(=O)CCCn1c(=O)[nH]c2ccsc2c1=O | inactive
O=C(N/C=C\c1ccccc1)NCc1ccc(Cl)cc1Cl | inconclusive: 35.5 µM [inhibitor, single point]
CN(CC(N)=O)S(=O)(=O)c1ccc(F)cc1 | inconclusive: 32.6 µM [activator, partial curve, poor fit]
COc1ccc(CCNC(=O)CN2CCN(S(=O)(=O)c3ccc(Cl)cc3)CC2)cc1OC | inactive
CCOc1ccc(NC(=O)c2cc3cc4ccc(OC)cc4nc3o2)cc1 | inconclusive: 0.291 µM [inhibitor, full curve, poor fit]
CCCN(CC(=O)Nc1cccc(Br)c1)CC(=O)Nc1ccc(F)c(F)c1F | inconclusive: 14.1 µM [inhibitor, single point]
CC(C)CN1C2CCCC1CC(NC(=S)NCc1ccco1)C2 (centres undefined) | inconclusive: 1.41 µM [inhibitor, full curve, poor fit]
Brc1ccc(-c2nc(-c3ccccn3)no2)o1 | active: 7.94 µM
O=C(Nc1ccccc1C(F)(F)F)NC1CCCCCCC1 | inactive
CS(=O)(=O)N1CCN(c2ccccc2NC(=O)C(c2ccccc2)c2ccccc2)CC1 | inconclusive: 29.1 µM [inhibitor, single point]

SMILES | Potency
CCOC(=O)N1CCc2c(sc3c2C(=O)NC(c2ccc(N(C)C)cc2)N3)C1 (centres undefined) | inconclusive: 6.31 µM [activator, full curve, poor fit]
Cc1ccc(-c2cc(C(=O)NCC3CCCO3)c3ccccc3n2)cc1C (centres undefined) | inactive
COc1ccc(CN2CCN(Cc3ccccc3)CC2)c(OC)c1 | active: 18.3 µM
COc1ccc(-c2cccc(C(=O)N3CCOCC3)c2)cc1 | inconclusive: 1 µM [inhibitor, single point]
O=C1Nc2ccccc2Oc2cc([N+](=O)[O-])cc(Oc3ccccc3)c21 | inconclusive: 22.4 µM [inhibitor, partial curve, poor fit]
CS(=O)(=O)N1CCN(C(=O)Nc2ccccc2)CC1 | inconclusive: 20 µM [activator, single point]
COc1ccc(CCn2nc(C)c([N+](=O)[O-])c2C)cc1 | inactive
COc1cccc(NC(=O)c2nc(SC)ncc2Cl)c1 | inactive
O=C(NCN1CCCCC1)c1cccnc1 | inconclusive: 0.0046 µM [activator, full curve, poor fit]
Cc1ccc(C)n1-c1ccsc1C(=O)CC#N | inconclusive: 1 µM [inhibitor, full curve, poor fit]
N#Cc1c(C(F)(F)F)cc(-c2ccccc2)nc1SCC(=O)N1CCOCC1 | inconclusive: 0.0046 µM [activator, full curve, poor fit]
Cc1nn(C)cc1CNC(=O)COc1ccc(Cl)cc1Cl | inconclusive: 29.1 µM [activator, single point]
COc1ccc(C(F)(F)F)cc1N/C=C/c1nnnn1-c1ccc(C)cc1 | inconclusive: 3.16 µM [inhibitor, full curve]
Cn1cnc(CCN)c1 | inconclusive: 0.316 µM [inhibitor, full curve]
CCOC(=O)c1cn2nc(Oc3ccccc3)ccc2n1 | inconclusive: 0.562 µM [activator, full curve, poor fit]
C/C(=N\NC(=O)CN1CCCCC1)c1cccc([N+](=O)[O-])c1 | inconclusive: 8.91 µM [activator, partial curve, poor fit]
CCOc1ccccc1NC(=O)CN1CCC(NC(=O)c2ccccc2C)CC1 | inactive
Cc1cccc(C(=O)N[C@H](C(=O)Nc2cc(S(=O)(=O)N3CCCCC3)ccc2C)C(C)C)c1 | inconclusive: 15.8 µM [inhibitor, single point]
CCn1cnc2c1c(=O)n(Cc1ccc(C(=O)OC)cc1)c(=O)n2Cc1ccccc1 | inconclusive: 3.55 µM [inhibitor, partial curve, poor fit]
O=C(Cc1ccc(-n2cccc2)cc1)NCc1ccccc1Cl | inconclusive: 35.5 µM [inhibitor, partial curve, poor fit]
O=[N+]([O-])c1ccc(COc2cccc(CNc3ccc(F)cc3)c2)cc1 | inconclusive: 15.8 µM [activator, single point]
COc1ccc(NS(=O)(=O)c2ccc(Cl)c(N)c2)cc1Br | inconclusive: 12.6 µM [inhibitor, partial curve, poor fit]
Cc1ccc(C2C3=C(CC(C)(C)CC3=O)Nc3[nH]c(=S)[nH]c(=O)c32)cc1 (centres undefined) | inconclusive: 29.1 µM [activator, single point]

SMILES | Potency
Cn1cnnc1SCC(=O)Nc1ccc2c(c1)CCC2 | inactive
CCN(CC(=O)N1CCN(C)CC1)S(=O)(=O)c1ccc(Cl)cc1 | inactive
Cc1onc(-c2ccccc2Cl)c1C(=O)OCC(=O)c1ccc2c(c1)OCCO2 | inconclusive: 7.94 µM [inhibitor, partial curve, poor fit]
S=C(Nc1ccc2nsnc2c1)N1CCCC1 | inactive
CCS(=O)(=O)N1CCC(C(=O)N2CCc3ccccc3C2)CC1 | inconclusive: 0.112 µM [activator, full curve, poor fit]
COc1ccc(CN2CCNC(=O)C2CC(=O)NCCCn2nnc3ccccc32)cc1C (centres undefined) | inactive
Cc1cc(Cl)ccc1OCC(=O)N[C@@H](Cc1ccccc1)c1nc2ccccc2[nH]1 | inconclusive: 8.91 µM [inhibitor, partial curve]
O=C(c1ccc(Cl)cc1)C1CCCN(Cc2ccc3ncccc3c2)C1 (centres undefined) | inconclusive: 10 µM [inhibitor, partial curve, poor fit]
O=C(CN1CCCCCC1)Nc1ccccc1Oc1ccccc1 | inconclusive: 11.2 µM [inhibitor, single point]
Cc1ccc(SCCNC(=O)c2ccc(C)c(S(=O)(=O)Nc3ccccc3C)c2)cc1 | active: 23.1 µM
Cc1ccc2c(c1)N(CC(=O)NC1CCCCCC1)C(=O)c1cccnc1O2 | inconclusive: 10 µM [activator, partial curve, poor fit]
COc1ccc(S(=O)(=O)N2CCOC23CCN(S(=O)(=O)c2ccc(F)cc2C)CC3)cc1 | inconclusive: 0.316 µM [inhibitor, full curve, poor fit]
CCc1ccc(C(=O)NNc2cc(Cl)cc(Cl)c2)cc1 | inconclusive: 11.2 µM [inhibitor, single point]
CCc1nnc(NC(=O)c2cc(=O)c3cc(C)ccc3o2)s1 | inconclusive: 5.62 µM [inhibitor, single point]
COc1ccccc1-c1cc(-c2ccccc2)nc(SC(C(N)=O)c2ccccc2)c1C#N (centres undefined) | active: 14.6 µM
O=C(Nc1ccccc1F)C1CCCN(S(=O)(=O)c2ccccc2)C1 (centres undefined) | inconclusive: 2.51 µM [inhibitor, partial curve, poor fit]
Cc1ccc(-c2cc(C(F)F)n3ncc(C(=O)Nc4ccc(S(=O)(=O)Nc5ccccc5C)cc4)c3n2)cc1 | inactive
CC(=O)Nc1ccc(/C=C/c2noc(-c3ccccc3O)n2)cc1 | inconclusive: 4.47 µM [activator, single point]
O=C(CSc1nnc(CNc2ccc(F)cc2)n1CC1CCCO1)N1CCOCC1 (centres undefined) | inactive
COc1cccc(/C=C/C(=O)c2c(O)cc(C)oc2=O)c1O | inconclusive: 0.0046 µM [inhibitor, full curve, poor fit]
CC(OC(=O)Cc1c[nH]c2ccccc12)C(=O)Nc1ccccc1F (centres undefined) | inconclusive: 0.891 µM [activator, full curve, poor fit]
O=C(NCc1ccc(Cl)cc1)c1noc2c1CCCCC2 | inconclusive: 0.326 µM [activator, full curve, poor fit]
CCN(CC)S(=O)(=O)c1cc([N+](=O)[O-])ccc1NNC(=O)Nc1ccc(F)cc1 | inconclusive: 20.6 µM [inhibitor, partial curve, poor fit]

Some of the entries so far, field by field:
CCOC(=O)c1ccc(NC(=O)COc2ccc(CNCCO)cc2OCC)cc1
  Potency: active: 10 µM
CC(=O)NCCNC(=O)CCCn1c(=O)[nH]c2ccsc2c1=O
  Potency: inactive
O=C(N/C=C\c1ccccc1)NCc1ccc(Cl)cc1Cl
  Potency: inconclusive: 35.5 µM [inhibitor, single point]
